# Results: PubChem BioAssay AID540276 (National Center for Advancing Translational Sciences (NCATS), 2011)
# Out of some 300,000 compounds screened, about 5,400 (1.8%) were called active. Inconclusive means that the source gave no clear call. Such entries were picked first, then a sample of the others. The call rests on the fitted dose curve; tested in HEK293 cells. A potency beside an inconclusive call is a rough fit, not a confirmed value.
# Test: qHTS for inhibitors of binding or entry into cells for Marburg Virus
# Settings: Marburg virus pseudotyped entry inhibition, cell reporter; activity change, negative = inhibition: at 37.8 µM (top of the series) unless noted
# On the % scale 0 is the no-effect control and ±100 the full control effect; potency means the concentration at half of the fitted maximal effect.
SMILES,Potency,"activity change, negative = inhibition"
C=CCOc1ccc2ccccc2c1CNCCCN1CCOCC1,"inconclusive: 8.91 µM [inhibitor, partial curve, poor fit]",–
N#CC1=C2SCC(O)(c3ccccc3)N2C(=O)CC1c1ccccc1 (centres undefined),"inconclusive: 0.355 µM [inhibitor, full curve]",–
CCCOP(=O)(c1ccc(N(C)C)cc1)C(O)c1ccc(Cl)cc1Cl (centres undefined),"inconclusive: 20 µM [inhibitor, partial curve, poor fit]",–
CSc1ccccc1OCc1cc(C(=O)N2CCN(c3ccccc3)CC2C)no1 (centres undefined),–,inactive: -13.4%
CSc1ccccc1-n1nnnc1SCC(=O)NCc1cccs1,"inconclusive: 3.98 µM [activator, partial curve, poor fit]",–
Cc1ccc(-c2nnc(N3CCOCC3)c3ccccc23)cc1S(=O)(=O)NCc1cccnc1,"inconclusive: 12.6 µM [inhibitor, single point]",–
CCOc1ccc2[nH]c(=O)c(C(c3nnnn3C3CCCCC3)N3CCN(C)CC3)cc2c1 (centres undefined),–,inactive: 10.6%
CC(C)OCCCNC(=O)c1c(N)n(Cc2cccs2)c2nc3ccccc3nc12,"inconclusive: 25.1 µM [inhibitor, single point]",–
O=C1CC(C(=O)Nc2cccc(Cl)c2)n2ncnc2N1 (centres undefined),"inconclusive: 7.08 µM [activator, partial curve, poor fit]",–
CC(C)C(c1nnnn1Cc1cccs1)N1CCN(C(=O)c2ccco2)CC1 (centres undefined),–,inactive: 23.6% [at 46.1 µM]
Cc1ccc(S(=O)(=O)N2CCN(C(=O)CSc3nc4ccccc4o3)C2)cc1,"inconclusive: 35.5 µM [inhibitor, single point]",–
COc1cc(/C=C/C(=O)OCC(=O)N2CC3(C)CC2CC(C)(C)C3)ccc1O (centres undefined),–,inactive: -36.9%
O=C(NCc1cccc(Cl)c1)c1cnn2c1NC(c1ccco1)CC2C(F)(F)F (centres undefined),"inconclusive: 20.6 µM [inhibitor, single point]",–
O=C(CCc1nnc(CCCCc2ccccc2)o1)NCc1cc(F)ccc1F,"inconclusive: 3.98 µM [activator, partial curve, poor fit]",–
COc1ccc(NC(=O)c2cc(-c3ccccc3Cl)no2)cc1,–,inactive: -0.827%
Cc1cccc(NC(=O)/C=C/c2cccs2)n1,"inconclusive: 23.1 µM [inhibitor, partial curve, poor fit]",–
O=C(CN1CCOCC1)Nc1nc(-c2ccc(Cl)cc2)cs1,"inconclusive: 15.8 µM [inhibitor, single point]",–
O=C(NC(NC1CCS(=O)(=O)C1)C(Cl)(Cl)Cl)c1ccc(Br)cc1 (centres undefined),–,inactive: -23.8%
Cc1cccc(C(C)C)c1NC(=O)c1ccc(OCC2CCCO2)cc1 (centres undefined),–,inactive: -13%
CCOC(=O)CSc1nnc(-c2ccccc2)c(-c2ccccc2)n1,"inconclusive: 3.16 µM [activator, single point]",–
COc1ccc(C(=O)N(Cc2ccccc2)c2cccc(C)c2)cc1S(=O)(=O)N1CCOCC1,"inconclusive: 22.4 µM [inhibitor, partial curve, poor fit]",–
Cc1ccc(S(=O)(=O)CCc2nnc(NC(=O)c3ccccn3)s2)cc1,"inconclusive: 35.5 µM [inhibitor, single point]",–
Clc1ccc(Nc2nc(-c3cccs3)cs2)nc1,"inconclusive: 0.316 µM [activator, partial curve, poor fit]",–

# Among those listed so far, these have a furan ring, fused or not:
SMILES,Potency,"activity change, negative = inhibition"
CC(C)C(c1nnnn1Cc1cccs1)N1CCN(C(=O)c2ccco2)CC1 (centres undefined),–,inactive: 23.6% [at 46.1 µM]
O=C(NCc1cccc(Cl)c1)c1cnn2c1NC(c1ccco1)CC2C(F)(F)F (centres undefined),"inconclusive: 20.6 µM [inhibitor, single point]",–

# (listing goes on)

SMILES,Potency,"activity change, negative = inhibition"
NCC(c1ccccc1Cl)c1c[nH]c2ccccc12 (centres undefined),"inconclusive: 12.6 µM [inhibitor, single point]",–
CCCCOC(=O)c1ccc(NC(C)=O)cc1,"inconclusive: 1.26 µM [activator, partial curve, poor fit]",–
Cc1[nH]c2ccc(S(N)(=O)=O)cc2c1C,"inconclusive: 29.1 µM [activator, single point]",–
CC1CCN(C(=O)CSc2nnc(Cc3cc(=O)[nH]c(=O)[nH]3)n2-c2ccc(Cl)cc2)CC1,inactive,–
O=C(Cn1c(=O)oc2cc(S(=O)(=O)NCc3ccccc3)ccc21)N1CCCC1,–,inactive: 1.29% [at 46.1 µM]
CCSCc1nnc(SCC(=O)Nc2cccc(C(C)=O)c2)n1C,"inconclusive: 7.08 µM [activator, full curve, poor fit]",–
COc1ccc2nc(NC(=O)C3CCN(S(=O)(=O)c4cccs4)CC3)sc2c1,"inconclusive: 29.1 µM [inhibitor, single point]",–
CCOC(=O)N1CCN(C(=O)CSc2ccc(-c3ccccc3)nn2)CC1,"inconclusive: 11.2 µM [activator, partial curve, poor fit]",–
O=C(NC1CC1)C1CCCN1S(=O)(=O)c1ccc2ccccc2c1 (centres undefined),"inconclusive: 29.1 µM [inhibitor, single point]",–
CN(CC#CC(O)(c1ccccc1)c1ccccc1)C(C)(C)C,"inconclusive: 12.6 µM [inhibitor, partial curve, poor fit]",–
Nc1ccc(S(N)(=O)=O)cc1N,"inconclusive: 3.98 µM [activator, single point]",–
Cc1[nH]c2c(C)cccc2c1CCNS(=O)(=O)c1cccc([N+](=O)[O-])c1,–,inactive: -19.5%
O=C(Nc1cccnc1)c1cc(-c2ccc3c(c2)OCO3)on1,"inconclusive: 1.16 µM [activator, single point]",–
COCCCNC(=S)N(Cc1cccnc1)Cc1ccc(OC)c(OC)c1,"inconclusive: 0.794 µM [activator, full curve, poor fit]",–
COc1ccc(C(=O)Nc2ccccn2)cc1,–,inactive: 18.4% [at 46.1 µM]
CC(=O)Nc1c(C)nn(-c2ccc(C)c(C)c2)c1C,"inconclusive: 11.2 µM [activator, partial curve, poor fit]",–
Cc1cc[n+](-c2[nH]c(=O)sc2/C=N/NC([S-])=Nc2ccccc2)cc1,"inconclusive: 25.1 µM [inhibitor, single point]",–
O=C(CCN1CCN(C/C=C/c2ccccc2)CC1)Nc1ccc(Cl)cc1,"inconclusive: 14.6 µM [inhibitor, partial curve, poor fit]",–
NC(=O)c1ccccc1NC(=O)c1cccc(C(=O)Nc2ccccc2C(N)=O)n1,"inconclusive: 6.31 µM [inhibitor, single point]",–
CCOc1ccccc1NC(=O)c1cc(S(=O)(=O)N2CCOCC2)ccc1C,–,inactive: 10.8%
CN(CC(=O)Nc1cccc(F)c1)C(=O)c1ccc(C(=O)c2ccccc2)cc1,"inconclusive: 35.5 µM [inhibitor, single point]",–
CCOC(=O)C1CCN(C(=O)CNC(=O)c2nn(-c3ccc(OC)cc3)c(=O)c3ccccc23)CC1,"inconclusive: 7.08 µM [inhibitor, partial curve, poor fit]",–
CC(NC(=O)c1ccc2c(c1)OCO2)C(c1cccs1)N1CCOCC1 (centres undefined),–,inactive: 16.9%

SMILES,Potency,"activity change, negative = inhibition"
CCOCCCNC(=S)N1CCCN(c2nc3c(C)c(C)ccc3cc2C#N)CC1,"inconclusive: 17.8 µM [inhibitor, single point]",–
CCN(CC(=O)Nc1c(F)cccc1F)C(=O)Cc1cccs1,–,inactive: 4.83% [at 46.1 µM]
CCCC(=O)NC(c1ccco1)c1cc(Cl)c2cccnc2c1O (centres undefined),"inconclusive: 22.4 µM [inhibitor, single point]",–
c1ccc(-c2nc(N3CCOCC3)cc(N3CCOCC3)n2)cc1,"inconclusive: 28.2 µM [inhibitor, partial curve, poor fit]",–
COc1cc(NC(=O)NCC2CCN(Cc3ccccc3F)CC2)cc(OC)c1,"inconclusive: 11.2 µM [inhibitor, partial curve, poor fit]",–
O=C(NNC(=O)c1ccc([N+](=O)[O-])cc1Cl)c1ccncc1,"inconclusive: 3.98 µM [inhibitor, single point]",–
O=C(O)CCC(=O)Nc1ccc(NC(=O)c2ccc(Cl)cc2Cl)c(Cl)c1,"inconclusive: 2.24 µM [inhibitor, single point]",–
CSc1cccc(NC(=O)c2ccccc2N(C)S(C)(=O)=O)c1,–,inactive: 1.07%
c1ccc(C2CC(c3ccccc3)n3c(nc4ccccc43)N2)cc1 (centres undefined),–,inactive: -11.4%
COc1ccc(CC(=O)NCC(=O)NC(Cc2ccccc2)C(=O)O)cc1 (centres undefined),"inconclusive: 1.26 µM [activator, single point]",–
CCOC(=O)c1cnc2ccc(C(=O)OC)cc2c1Nc1ccccc1CC,"inconclusive: 5.62 µM [inhibitor, single point]",–
Cc1cc(C)c2c(c1)-c1c(ssc1=S)C(C)(C)N2C(=O)CN1C(=O)c2ccccc2C1=O,active: 3.98 µM,–
Cc1ccccc1Cn1nnc2c(=O)[nH]c(C3CCN(C(=O)c4ccccc4)CC3)nc21,–,inactive: 0.42% [at 46.1 µM]
C=CCN1C(=O)[C@]2(c3ccccc31)C1CCCC=C1C(C#N)=C(N)C2(C#N)C#N (some centres undefined),"inconclusive: 8.2 µM [inhibitor, partial curve]",–
OC(C#CCCN1CCCCC1)(c1ccccc1)c1ccccc1,–,inactive: -18.7% [at 14.2 µM]
CC(=O)C1=C(C)NC(SCC(=O)c2ccc(Cl)c(Cl)c2)=C(C#N)C1c1ccco1 (centres undefined),"inconclusive: 29.1 µM [inhibitor, single point]",–
Cc1c(Cl)cccc1NC(=S)N1CCCN(Cc2ccccc2F)C1,active: 10 µM,–
CC1CCN(CCn2c(=S)[nH]c3ncccc3c2=O)CC1,–,inactive: 1.67%
Nc1ccc(S(=O)(=O)Nc2nccc(/C=C/c3ccccc3F)n2)cc1,"inconclusive: 11.2 µM [inhibitor, partial curve]",–
CC(NC(=O)c1ccc2c(c1)C(=O)N(Cc1cccnc1)C2=O)c1ccccc1 (centres undefined),–,inactive: 21.7%
Cc1cc(C)c(C#N)c(SCC(=O)c2ccc(Cl)cc2Cl)n1,"inconclusive: 23.1 µM [inhibitor, single point]",–
O=C(Nc1ccccc1Br)C1CC(=O)N(c2ccc3c(c2)OCCO3)C1 (centres undefined),–,inactive: -1.1%
Cc1ccc(NC(=S)N2CCN(S(C)(=O)=O)CC2)cc1,–,inactive: -0.951% [at 46.1 µM]
